What was measured:
[1] = Base content of liposomes prepared by hydration of lyophilized lipid
[2] = Incorporation of base salts into liposomes by solvent (alcohol) dilution; settings: for base content, solvent dilution: 2-propanol
[3] = lipid in 1-propanol, sulfate salt, first volume 200, second volume 300 microliter
[4] = lipid in 1-propanol, sulfate salt, first volume 300, second volume 200 microliter
[5] = lipid in 1-propanol, sulfate salt, first volume 400, second volume 100 microliter
[6] = lipid in 1-propanol, sulfate salt, first volume 500, second volume 0 microliter
[7] = lipid in 1-propanol, sulfate salt, first volume 600, second volume 0 microliter
[8] = lipid in 1-propanol, sulfate salt, first volume 700, second volume 0 microliter
[9] = lipid in 1-propanol, sulfate salt, first volume 800, second volume 0 microliter
[10] = lipid in 2-butanol, sulfate salt, first volume 800, second volume 0 microliter
[11] = lipid in 2-butanol, sulfate salt, first volume 1000, second volume 0 microliter
[12] = lipid in 2-butanol, sulfate salt, first volume 1200, second volume 0 microliter
[13] = lipid in 2-propanol, 58° C., 0.2M sulfate salt, first volume 150, second volume 350 microliter
[14] = lipid in 2-propanol, 58° C., 0.2M sulfate salt, first volume 200, second volume 300 microliter
[15] = lipid in 2-propanol, 58° C., 0.2M sulfate salt, first volume 250, second volume 250 microliter
[16] = lipid in 2-propanol, 58° C., 0.2M sulfate salt, first volume 300, second volume 200 microliter
[17] = lipid in 2-propanol, 58° C., 0.2M sulfate salt, first volume 350, second volume 150 microliter
[18] = lipid in 2-propanol, 58° C., 0.2M sulfate salt, first volume 400, second volume 100 microliter
[19] = lipid in t-butanol, 62° C., 0.2M sulfate salt, first volume 200, second volume 300 microliter
[20] = lipid in t-butanol, 62° C., 0.2M sulfate salt, first volume 300, second volume 200 microliter
[21] = lipid in t-butanol, 62° C., 0.2M sulfate salt, first volume 400, second volume 100 microliter
[22] = lipid in t-butanol, 62° C., 0.2M sulfate salt, first volume 500, second volume 0 microliter
[23] = lipid in t-butanol, 62° C., 0.2M sulfate salt, first volume 600, second volume 0 microliter
[24] = lipid in t-butanol, 62° C., 0.2M sulfate salt, first volume 700, second volume 0 microliter

## 2-methoxypyridinium sulfate [Example 2-MP]
[1]; base salt concentration 0.25M
  base content, hydration of lyophilized lipid: 0.075 ± 0.002 mol/mol
[1]; base salt concentration 0.5M
  base content, hydration of lyophilized lipid: 0.158 ± 0.044 mol/mol
[1]; base salt concentration 1.0M
  base content, hydration of lyophilized lipid: 0.885 ± 0.612 mol/mol
[2]; alcohol 2-propanol, 59 ° C., 0.2M sulfate salt, 250 + 250 microliters
  Capture: 0.283 mol/mol phospholipid
[2]; alcohol Ethanol, 60 ° C., 0.2M sulfate salt, 250 + 250 microliters
  Capture: 0.0015 mol/mol phospholipid
[2]; alcohol Methanol, 59 ° C., 0.2M sulfate salt, 250 + 250 microliters
  Capture: 0.007 mol/mol phospholipid
[2]; alcohol t-butanol, 62 ° C., 0.2M sulfate salt, 250 + 250 microliters
  Capture: 0.161 mol/mol phospholipid
[2]; base salt concentration 0.25M
  base content, solvent dilution: 0.35 mol/mol
[2]; base salt concentration 0.5M
  base content, solvent dilution: 0.58 mol/mol
[2]; base salt concentration 1.0M
  base content, solvent dilution: 1.81 mol/mol
[2]; [3]
  Capture: 0.21 mol/mol
  Capture Efficiency: 7.64%
[2]; [4]
  Capture: 0.17 mol/mol
  Capture Efficiency: 6.33%
[2]; [5]
  Capture: 0.17 mol/mol
  Capture Efficiency: 6.24%
[2]; [6]
  Capture: 0.39 mol/mol
  Capture Efficiency: 13.76%
[2]; [7]
  Capture: 0.47 mol/mol
  Capture Efficiency: 13.65%
[2]; [8]
  Capture: 0.96 mol/mol
  Capture Efficiency: 24.11%
[2]; [9]
  Capture: 0.56 mol/mol
  Capture Efficiency: 12.33%
[2]; [10]
  Capture: 0.37 mol/mol
  Capture Efficiency: 9.31%
[2]; [11]
  Capture: 0.54 mol/mol
  Capture Efficiency: 10.77%
[2]; [12]
  Capture: 0.34 mol/mol
  Capture Efficiency: 5.64%
[2]; [13]
  Capture: 0.067 mol/mol
  Capture Efficiency: 2.68%
[2]; [14]
  Capture: 0.116 mol/mol
  Capture Efficiency: 4.64%
[2]; [15]
  Capture: 0.265 mol/mol
  Capture Efficiency: 10.6%
[2]; [16]
  Capture: 0.258 mol/mol
  Capture Efficiency: 10.32%
[2]; [17]
  Capture: 0.433 mol/mol
  Capture Efficiency: 17.32%
[2]; [18]
  Capture: 0.185 mol/mol
  Capture Efficiency: 7.4%
[2]; [19]
  Capture: 0.118 mol/mol
  Capture Efficiency: 4.72%
[2]; [20]
  Capture: 0.147 mol/mol
  Capture Efficiency: 5.88%
[2]; [21]
  Capture: 0.207 mol/mol
  Capture Efficiency: 8.28%
[2]; [22]
  Capture: 0.290 mol/mol
  Capture Efficiency: 11.6%
[2]; [23]
  Capture: 0.373 mol/mol
  Capture Efficiency: 12.43%
[2]; [24]
  Capture: 0.239 mol/mol
  Capture Efficiency: 6.83%

— patent publication US12059499B2, “Liposome loading” (PLUMB PHARMACEUTICALS, INC., priority 2015, dated 2024)
